This is an account of results in article PMC5643328.

Protein sequences, listed by entry. Tags and fused reporters are not part of them.
UniProt P16591: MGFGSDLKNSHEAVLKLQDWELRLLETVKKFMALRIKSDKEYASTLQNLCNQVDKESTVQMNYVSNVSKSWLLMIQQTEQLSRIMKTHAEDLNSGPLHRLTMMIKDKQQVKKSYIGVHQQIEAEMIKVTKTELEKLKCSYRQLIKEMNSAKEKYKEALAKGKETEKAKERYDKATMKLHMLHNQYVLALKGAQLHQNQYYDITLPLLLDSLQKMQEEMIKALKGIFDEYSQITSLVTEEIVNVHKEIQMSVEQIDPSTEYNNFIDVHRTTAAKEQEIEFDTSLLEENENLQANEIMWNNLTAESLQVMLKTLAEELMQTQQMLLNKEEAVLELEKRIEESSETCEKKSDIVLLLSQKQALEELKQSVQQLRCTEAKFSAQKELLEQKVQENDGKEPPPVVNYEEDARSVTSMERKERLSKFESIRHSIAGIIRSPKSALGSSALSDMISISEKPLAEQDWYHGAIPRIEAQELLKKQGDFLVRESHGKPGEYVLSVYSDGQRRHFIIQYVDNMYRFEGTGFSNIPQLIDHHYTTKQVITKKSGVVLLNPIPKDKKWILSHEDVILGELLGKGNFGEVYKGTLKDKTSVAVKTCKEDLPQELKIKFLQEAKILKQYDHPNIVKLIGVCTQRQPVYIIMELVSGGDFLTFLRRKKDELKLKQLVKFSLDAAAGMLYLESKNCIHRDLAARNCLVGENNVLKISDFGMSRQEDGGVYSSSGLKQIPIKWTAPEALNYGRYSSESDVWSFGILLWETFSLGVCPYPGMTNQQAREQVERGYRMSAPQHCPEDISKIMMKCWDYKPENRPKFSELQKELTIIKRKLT
UniProt P09874: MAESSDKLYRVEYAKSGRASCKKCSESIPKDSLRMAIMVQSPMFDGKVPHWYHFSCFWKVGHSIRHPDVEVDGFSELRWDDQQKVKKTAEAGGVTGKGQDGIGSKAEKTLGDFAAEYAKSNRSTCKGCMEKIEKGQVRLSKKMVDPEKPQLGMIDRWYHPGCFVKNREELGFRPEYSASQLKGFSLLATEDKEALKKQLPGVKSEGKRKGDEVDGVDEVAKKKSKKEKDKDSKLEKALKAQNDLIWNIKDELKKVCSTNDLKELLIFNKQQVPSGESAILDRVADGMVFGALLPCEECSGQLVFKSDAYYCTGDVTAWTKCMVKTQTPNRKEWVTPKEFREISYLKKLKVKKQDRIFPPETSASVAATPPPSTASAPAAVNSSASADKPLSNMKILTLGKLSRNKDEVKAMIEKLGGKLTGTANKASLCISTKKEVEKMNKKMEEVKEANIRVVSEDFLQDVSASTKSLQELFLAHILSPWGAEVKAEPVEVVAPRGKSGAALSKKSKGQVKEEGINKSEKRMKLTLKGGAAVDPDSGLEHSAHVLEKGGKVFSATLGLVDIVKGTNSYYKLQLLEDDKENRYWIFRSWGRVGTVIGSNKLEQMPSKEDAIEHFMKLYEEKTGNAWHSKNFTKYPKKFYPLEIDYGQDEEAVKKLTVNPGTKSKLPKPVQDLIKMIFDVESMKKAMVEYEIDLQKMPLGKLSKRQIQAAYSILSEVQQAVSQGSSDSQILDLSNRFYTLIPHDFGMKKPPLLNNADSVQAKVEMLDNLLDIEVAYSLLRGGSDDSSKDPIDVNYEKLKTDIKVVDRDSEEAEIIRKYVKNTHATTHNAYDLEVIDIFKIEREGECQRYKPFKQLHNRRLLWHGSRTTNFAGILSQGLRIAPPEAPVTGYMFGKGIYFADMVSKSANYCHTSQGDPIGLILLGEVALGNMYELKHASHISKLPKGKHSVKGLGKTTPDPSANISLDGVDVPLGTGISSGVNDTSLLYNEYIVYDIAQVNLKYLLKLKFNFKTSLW

These are yes or no findings as the source states them, for the method shown. Binding seen in cells or lysates may run through a third protein. Some binding calls cover weakened binding; strength is not graded here.

In test [1] the target is Fer kinase (human (endogenous in SW620)) (UniProt P16591). Put plainly: condition: only cells treated with 2 µM E260 for 12 h; co-IP; as a2, but nuclear lysates of SW620 cells treated with 2 µM E260 (Fer/FerT inhibitor) for 12 h.
Test [2] shares this target. In words: co-IP; nuclear protein lysates (5 mg) of SW620 cells treated with vehicle or increasing concentrations of E260 for 12 h; IP of Fer with antibodies against its N-terminal tail overnight at 4 °C, protein A Sepharose; washes in Tris pH 7.5, 0.1% Triton X-100, 150 mM then 75 mM NaCl; western blot; IgG-linked beads as control. A general note: Immunoblotting shows a protein as a band on a membrane.

As to “poly (ADP-ribose) polymerase-1 (from UniProt P09874 1-1014) (enzyme)”, the results for the binding result in test [1] and in test [2] were “no binding” and “binds”, respectively.
